Experimental data: PubChem BioAssay AID1259254 (NCATS, 2017)
This is one part, drawn at random, of about 59,000 reagents tested. Over the whole deposit, about 1,550 (2.6%) got an active call. 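G2 share is only a proxy for re-replication; each gene was hit by three separate siRNAs, and active genes were retested.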 The raw values are shown without normalisation. Not given: the amount of reagent.

Screen: 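Genome-wide screen for genes that prevent DNA re-replication in cancer cells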 (primary screen)
Cell system: human HCT116 colorectal cancer cells
Reagent: single siRNA against human genes
Duration: 3 days
Measured: 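Imaged Hoechst DNA stain sorts each cell into a cycle phase by DNA amount; per plate, G2 fraction set to 0% for non-targeting and 100% for GMNN siRNA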
Scale: G2 robust z-score and G2 cells, % of GMNN control: higher = more G2 cells, more excess DNA replication; raw share of cells in G2: higher = larger share of cells with G2 DNA content
Rule for the call: 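Active siRNAs have a G2 robust z of 5 or more median absolute deviations over the median, which in these data means about 38% or higher of GMNN control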

The opening 9 records, to show the layout:
| target gene | PubChem SID | G2 robust z-score | G2 cells, % of GMNN control | raw share of cells in G2 (%) | outcome |
| --- | --- | --- | --- | --- | --- |
| STING1 (stimulator of interferon response cGAMP interactor 1) | SID160733088 | -0.334 | 0.621 | 4.44 | inactive |
| STING1 (stimulator of interferon response cGAMP interactor 1) | SID160764350 | -0.809 | -2.73 | 3.05 | inactive |
| STING1 (stimulator of interferon response cGAMP interactor 1) | SID160764351 | 0.844 | 8.9 | 7.16 | inactive |
| SMNDC1 (survival motor neuron domain containing 1) | SID160728080 | 0.549 | 6.83 | 8.66 | inactive |
| SMNDC1 (survival motor neuron domain containing 1) | SID160728081 | 1.07 | 10.5 | 7.23 | inactive |
| SMNDC1 (survival motor neuron domain containing 1) | SID160728082 | -0.317 | 0.739 | 6.77 | inactive |
| TSSK6 (testis specific serine kinase 6) | SID160751581 | -0.798 | -2.65 | 4.76 | inactive |
| TSSK6 (testis specific serine kinase 6) | SID160751582 | -0.308 | 0.804 | 5.48 | inactive |
| TSSK6 (testis specific serine kinase 6) | SID160751583 | -0.0748 | 2.44 | 4.46 | inactive |

The listing, repeating the preview:
| target gene | PubChem SID | G2 robust z-score | G2 cells, % of GMNN control | raw share of cells in G2 (%) | outcome |
| --- | --- | --- | --- | --- | --- |
| STING1 (stimulator of interferon response cGAMP interactor 1) | SID160733088 | -0.334 | 0.621 | 4.44 | inactive |
| STING1 (stimulator of interferon response cGAMP interactor 1) | SID160764350 | -0.809 | -2.73 | 3.05 | inactive |
| STING1 (stimulator of interferon response cGAMP interactor 1) | SID160764351 | 0.844 | 8.9 | 7.16 | inactive |
| SMNDC1 (survival motor neuron domain containing 1) | SID160728080 | 0.549 | 6.83 | 8.66 | inactive |
| SMNDC1 (survival motor neuron domain containing 1) | SID160728081 | 1.07 | 10.5 | 7.23 | inactive |
| SMNDC1 (survival motor neuron domain containing 1) | SID160728082 | -0.317 | 0.739 | 6.77 | inactive |
| TSSK6 (testis specific serine kinase 6) | SID160751581 | -0.798 | -2.65 | 4.76 | inactive |
| TSSK6 (testis specific serine kinase 6) | SID160751582 | -0.308 | 0.804 | 5.48 | inactive |
| TSSK6 (testis specific serine kinase 6) | SID160751583 | -0.0748 | 2.44 | 4.46 | inactive |
| MAD2L2 (mitotic arrest deficient 2 like 2) | SID160728470 | 1.85 | 16 | 12.5 | inactive |
| MAD2L2 (mitotic arrest deficient 2 like 2) | SID160728471 | 3.78 | 29.5 | 16.3 | inactive |
| MAD2L2 (mitotic arrest deficient 2 like 2) | SID160728472 | 0.219 | 4.51 | 5.05 | inactive |
| OLFM3 (olfactomedin 3) | SID160755617 | -0.64 | -1.54 | 3.48 | inactive |
| OLFM3 (olfactomedin 3) | SID160755618 | -0.827 | -2.85 | 2.48 | inactive |
| OLFM3 (olfactomedin 3) | SID160755619 | 0.101 | 3.68 | 2.89 | inactive |
| RFC1 (replication factor C subunit 1) | SID160715815 | 2.98 | 23.9 | 13.2 | inactive |
| RFC1 (replication factor C subunit 1) | SID160715816 | -0.142 | 1.97 | 4.8 | inactive |
| RFC1 (replication factor C subunit 1) | SID160731653 | -0.495 | -0.516 | 4.48 | inactive |
| RHOU (ras homolog family member U) | SID160731628 | -0.198 | 1.57 | 4.8 | inactive |
| RHOU (ras homolog family member U) | SID160746815 | 0.0512 | 3.33 | 5.52 | inactive |
| RHOU (ras homolog family member U) | SID160746816 | 2.25 | 18.8 | 13.4 | inactive |
| SLC50A1 | SID160733636 | 2.87 | 23.2 | 10.4 | inactive |
| SLC50A1 | SID160744706 | 4.17 | 32.3 | 17.1 | inactive |
| SLC50A1 | SID160744707 | 2.15 | 18.1 | 13.1 | inactive |
| LRMDA (leucine rich melanocyte differentiation associated) | SID160735067 | 0.127 | 3.86 | 3.58 | inactive |
| LRMDA (leucine rich melanocyte differentiation associated) | SID160751556 | 0.458 | 6.19 | 6.17 | inactive |
| LRMDA (leucine rich melanocyte differentiation associated) | SID160751557 | 0.24 | 4.66 | 4.84 | inactive |
| MYBL1 (MYB proto-oncogene like 1) | SID160769713 | 1.39 | 12.7 | 8.58 | inactive |
| MYBL1 (MYB proto-oncogene like 1) | SID160769714 | 0.0193 | 3.1 | 4.38 | inactive |
| MYBL1 (MYB proto-oncogene like 1) | SID160769715 | 1.04 | 10.3 | 6.3 | inactive |
| MYBL1 (MYB proto-oncogene like 1) | SID160777609 | -0.882 | -3.24 | 2.13 | inactive |
| MYBL1 (MYB proto-oncogene like 1) | SID160777610 | -1.01 | -4.15 | 3.76 | inactive |
| MYBL1 (MYB proto-oncogene like 1) | SID160777611 | 2.02 | 17.2 | 12.3 | inactive |
| PDS5B (PDS5 cohesin associated factor B) | SID160735321 | 0.124 | 3.84 | 6.49 | inactive |
| PDS5B (PDS5 cohesin associated factor B) | SID160735322 | 1.13 | 10.9 | 8.65 | inactive |
| PDS5B (PDS5 cohesin associated factor B) | SID160735323 | 0.646 | 7.51 | 5.98 | inactive |
| IL1R1 (interleukin 1 receptor type 1) | SID160775678 | 0.807 | 8.65 | 7.37 | inactive |
| IL1R1 (interleukin 1 receptor type 1) | SID160775679 | -0.36 | 0.431 | 5.85 | inactive |
| IL1R1 (interleukin 1 receptor type 1) | SID160775680 | -0.79 | -2.59 | 4.1 | inactive |
| CD200 (CD200 molecule) | SID160777412 | -0.789 | -2.59 | 2.34 | inactive |
| CD200 (CD200 molecule) | SID160777413 | -0.83 | -2.87 | 4.33 | inactive |
| CD200 (CD200 molecule) | SID160777414 | -0.108 | 2.21 | 6.21 | inactive |
| COA4 (cytochrome c oxidase assembly factor 4 homolog) | SID160740503 | -1.65 | -8.61 | 0.521 | inactive |
| COA4 (cytochrome c oxidase assembly factor 4 homolog) | SID160740504 | -0.122 | 2.11 | 5.16 | inactive |
| COA4 (cytochrome c oxidase assembly factor 4 homolog) | SID160740505 | 0.861 | 9.03 | 6.18 | inactive |
| GPR143 (G protein-coupled receptor 143) | SID160778316 | -0.693 | -1.91 | 5.16 | inactive |
| GPR143 (G protein-coupled receptor 143) | SID160778317 | -0.886 | -3.27 | 3.37 | inactive |
| GPR143 (G protein-coupled receptor 143) | SID160778318 | -0.55 | -0.902 | 2.99 | inactive |
| ASB18 (ankyrin repeat and SOCS box containing 18) | SID160733332 | -0.46 | -0.272 | 4.68 | inactive |
| ASB18 (ankyrin repeat and SOCS box containing 18) | SID160767127 | 2.01 | 17.1 | 10 | inactive |
| ASB18 (ankyrin repeat and SOCS box containing 18) | SID160767129 | 2.17 | 18.2 | 10.7 | inactive |
| FAM78B (family with sequence similarity 78 member B) | SID160732561 | -0.368 | 0.376 | 3.2 | inactive |
| FAM78B (family with sequence similarity 78 member B) | SID160758800 | -1.18 | -5.31 | 2.05 | inactive |
| FAM78B (family with sequence similarity 78 member B) | SID160758801 | 2.78 | 22.5 | 9.87 | inactive |
| NOTCH1 (notch receptor 1) | SID160778150 | -0.159 | 1.85 | 6.08 | inactive |
| NOTCH1 (notch receptor 1) | SID160778151 | -0.313 | 0.765 | 5.77 | inactive |
| NOTCH1 (notch receptor 1) | SID160778152 | -1.04 | -4.33 | 1.77 | inactive |
| BEND4 (BEN domain containing 4) | SID160766130 | 0.958 | 9.71 | 7.1 | inactive |
| BEND4 (BEN domain containing 4) | SID160766131 | -0.318 | 0.733 | 3.72 | inactive |
| BEND4 (BEN domain containing 4) | SID160766132 | -0.408 | 0.0968 | 4.68 | inactive |
| TRAF3 (TNF receptor associated factor 3) | SID160718324 | 1.14 | 11 | 10.3 | inactive |
| TRAF3 (TNF receptor associated factor 3) | SID160718325 | -0.365 | 0.4 | 4.61 | inactive |
| TRAF3 (TNF receptor associated factor 3) | SID160718326 | 0.121 | 3.82 | 5.68 | inactive |
| CITED1 (Cbp/p300 interacting transactivator with ED-rich tail 1) | SID160731245 | 1.29 | 12 | 10 | inactive |
| CITED1 (Cbp/p300 interacting transactivator with ED-rich tail 1) | SID160731246 | -0.596 | -1.23 | 2.79 | inactive |
| CITED1 (Cbp/p300 interacting transactivator with ED-rich tail 1) | SID160777455 | 1.92 | 16.5 | 12 | inactive |
| SHROOM4 (shroom family member 4) | SID160746062 | -0.0306 | 2.75 | 6.29 | inactive |
| SHROOM4 (shroom family member 4) | SID160746063 | 1.58 | 14.1 | 9.55 | inactive |
| SHROOM4 (shroom family member 4) | SID160746064 | 0.108 | 3.73 | 5.83 | inactive |
| TAGLN2 (transgelin 2) | SID160719979 | -0.813 | -2.75 | 3.29 | inactive |
| TAGLN2 (transgelin 2) | SID160719980 | 0.68 | 7.75 | 7.48 | inactive |
| TAGLN2 (transgelin 2) | SID160719981 | -1.1 | -4.77 | 3.59 | inactive |
| ITFG1 (integrin alpha FG-GAP repeat containing 1) | SID160750762 | 0.341 | 5.37 | 6.14 | inactive |
| ITFG1 (integrin alpha FG-GAP repeat containing 1) | SID160750763 | 3.25 | 25.8 | 16.2 | inactive |
| ITFG1 (integrin alpha FG-GAP repeat containing 1) | SID160750764 | -0.603 | -1.28 | 4.31 | inactive |
| OR1N2 (olfactory receptor family 1 subfamily N member 2) | SID160757638 | -0.534 | -0.788 | 3.88 | inactive |
| OR1N2 (olfactory receptor family 1 subfamily N member 2) | SID160757639 | -0.463 | -0.287 | 3.01 | inactive |
| OR1N2 (olfactory receptor family 1 subfamily N member 2) | SID160757640 | -0.809 | -2.72 | 1.59 | inactive |
| PGAP4 (post-GPI attachment to proteins GalNAc transferase 4) | SID160752104 | -0.793 | -2.61 | 3.24 | inactive |
| PGAP4 (post-GPI attachment to proteins GalNAc transferase 4) | SID160752105 | 1.13 | 10.9 | 6.7 | inactive |
| PGAP4 (post-GPI attachment to proteins GalNAc transferase 4) | SID160752106 | 0.248 | 4.71 | 3.83 | inactive |
| LINC00668 (long independently transcribed non-coding RNA 668) | SID160733321 | -0.553 | -0.92 | 4.41 | inactive |
| LINC00668 (long independently transcribed non-coding RNA 668) | SID160767010 | 1.63 | 14.4 | 9.05 | inactive |
| LINC00668 (long independently transcribed non-coding RNA 668) | SID160767011 | -0.169 | 1.78 | 4.22 | inactive |
| C2 (complement C2) | SID160729634 | 6.32 | 47.4 | 22.1 | active |
| C2 (complement C2) | SID160729645 | -0.485 | -0.446 | 4.75 | inactive |
| C2 (complement C2) | SID160729654 | -0.281 | 0.99 | 4.28 | inactive |
